{"source": "paper PMC10403730", "about": "“PABPN1 aggregation is driven by Ala expansion and poly(A)-RNA binding, leading to CFIm25 sequestration that impairs alternative polyadenylation”", "key": {"[1]": {"target": "T1, EGFP-PABPN1-10A-RRMMut-ΔCT F215A,Y217A (Homo sapiens) (UniProt Q86U42)", "T1 sequence (looked up)": "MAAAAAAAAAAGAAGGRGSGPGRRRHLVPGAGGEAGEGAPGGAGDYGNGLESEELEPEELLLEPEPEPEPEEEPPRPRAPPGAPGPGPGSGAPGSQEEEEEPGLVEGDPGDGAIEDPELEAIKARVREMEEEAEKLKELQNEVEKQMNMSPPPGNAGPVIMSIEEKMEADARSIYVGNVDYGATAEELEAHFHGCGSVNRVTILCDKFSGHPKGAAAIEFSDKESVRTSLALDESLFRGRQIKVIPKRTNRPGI", "experiment": "EMSA", "conditions": "2 nM dA50, 0-5 uM protein, RRM mutation weakened association considerably; 50 mM Tris-HCl, 150 mM NaCl, 2 mM MgCl2, pH 7.5, 30 min at room temperature; 6% native gel; recombinant protein; residues 1-254; protein details: N-terminal EGFP, C-terminal His; label: 5'-Cy5; single-stranded DNA"}, "[2]": {"target": "EGFP-PABPN1-17A-ΔCT N-terminal,A,stretch,expanded,from,10,to,17 (Homo sapiens) (UniProt Q86U42)", "experiment": "EMSA", "conditions": "2 nM dA50, weaker than 10A-ΔCT; 50 mM Tris-HCl, 150 mM NaCl, 2 mM MgCl2, pH 7.5, 30 min at room temperature; 6% native gel; recombinant protein; residues 1-254; protein details: N-terminal EGFP, C-terminal His; label: 5'-Cy5; single-stranded DNA"}}, "note": "The comparison behind a weaker result is the experiment's own reference, which may not be listed here. For some assays here: Tags and fusion partners may be left off the protein sequences shown. For some assays here: Construct, isoform or probe ends are uncertain for at least one entry.", "data": [{"sequence": "AAAAAAAAAAAAAAAAAAAAAAAAAAAAAAAAAAAAAAAAAAAAAAAAAA [Cy5-dA50]", "values": [{"measurement": "binding result", "setting": "[1]", "value": "binds more weakly"}, {"measurement": "binding result", "setting": "[2]", "value": "binds more weakly"}]}]}
